According to patent US4923853A, “Process for enhancing the activity of plant protecting agents by using cyclodextrin” (Chinoin Gyogyszer Es Vegyeszeti Termekek Gyara R.T., priority 1985, dated 1990):
In brackets after ≈: the same amount, converted by molar mass. The name of at least one read-out is uncertain.

Columns and labels:
Assay in all cases: Fungicidal activity on agar nutrient media
Type in all cases: cell-based
Conditions in all cases: Table 5, related to active ingredient
[1] = system: Rhizoctonia solani
[2] = system: Fusarium moniliforme
[3] = system: Ascochyta pisi
[4] = system: Fusarium culmorum
[5] = system: Colletotrichum lini
[6] = system: Alternaria tennis
[7] = system: Stemphylium radicinum
[8] = system: Alternaria crassa

`COCC1CC(=O)N(c2cc(Cl)cc(Cl)c2)C1=O` (centres unmarked) [Metomeclan, 1-(3,5-dichlorophenyl)-3-methoxymethyl-pyrrolidine-2,5-dione] showed an ED50 [1] of 3.3 µg/mL (≈ 11.5 µM), an ED50 [2] of 12 µg/mL (≈ 41.6 µM) and an ED50 [3] of 4.6 µg/mL (≈ 16 µM). It also gave an ED50 [4] of 16.5 µg/mL (≈ 57.3 µM), an ED50 [5] of 25.5 µg/mL (≈ 88.5 µM) and an ED50 [6] of 2.9 µg/mL (≈ 10.1 µM). The ED50 [7] was 5.7 µg/mL (≈ 19.8 µM) and the ED50 [8] was 3.9 µg/mL (≈ 13.5 µM).
